According to publication PMC9785231, “Synthesis and Pharmacological Evaluation of Enantiopure N-Substituted Ortho-c Oxide-Bridged 5-Phenylmorphans” (Molecules, 2022):

What was measured:
[1] = Microsomal metabolic stability, mouse liver microsomes
[2] = Microsomal metabolic stability, human liver microsomes
in vitro = details: mouse, microsomes

## CCCNCC(O)COc1ccccc1C(=O)CCc1ccccc1 (stereo not drawn) [Propafenone]
[1]; MLM 0.5, no co-factor (no NADPH)
  Remaining (NCF = 60 min): 105.6%
[1]; MLM 0.5, with NADPH
  Remaining (T = 60 min): 0.0%
[2]; HLM 0.5, no co-factor (no NADPH)
  Remaining (NCF = 60 min): 95.8%
[2]; HLM 0.5, with NADPH
  Remaining (T = 60 min): 0.1%
In vitro
  CLint scaled: 187 L/h/kg
  microsomal CLint: 789 µL/min/mg
